Data as given in PubChem BioAssay AID504808 (Drosophila RNAi Screening Center, 2011).

- Test: 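Fly genes required to hold E2F transcription in check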 (primary screen)
- Cells: Drosophila S2 cells
- Reagent: long dsRNA against Drosophila genes
- Detection: 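Dual luciferase plate measurements; E2F-specific signal taken as firefly over Renilla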
- Direction: E2F firefly: higher = more E2F reporter activity; Renilla normaliser: higher = more normaliser reporter signal
- Rule for the call: 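Called active if the normalised E2F reporter went up by over 50%; the cutoff is arbitrary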
In all, the deposit lists about 21,000 reagents; below is an unselected part of those that have a named target and a result. Over the whole deposit, 18 (0.084%) got an active call. 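Raw counts without plate normalisation, one of two replicates; the ratio scores behind the calls were not deposited.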 A number with no mark means an inactive call. Names joined by + are all predicted targets of the reagent. Not given: the amount of reagent, the time to read-out.

| Gene | DRSC id | E2F firefly, rep 1 | Renilla normaliser, rep 1 |
| --- | --- | --- | --- |
| Sqor (Sulfide quinone oxidoreductase) | DRSC08453 | 83280 | 3537 |
| lncRNA:sphinx + ATPsynF | DRSC17191 | 88098 | 2699 |
| Ing5 (Inhibitor of growth family member 5) | DRSC03188 | 84986 | 3600 |
| CG34244 | DRSC09304 | 1.47e5 | 2527 |
| CG43658 | DRSC20111 | 2.09e5 | 7034 |
| Fa2h (Fatty acid 2-hydroxylase) | DRSC06608 | 1.38e5 | 4839 |
| Fa2h (Fatty acid 2-hydroxylase) | DRSC06609 | 1.41e5 | 4992 |
| CG11267 | DRSC09833 | 1.37e5 | 6974 |
| msl-1 (male-specific lethal 1) | DRSC03573 | 89820 | 3553 |
| PDZ-GEF (PDZ domain-containing guanine nucleotide exchange factor) | DRSC03231 | 1.50e5 | 4693 |
| Gnpat (Glyceronephosphate O-acyltransferase) | DRSC16960 | 1.03e5 | 5445 |
| CCT3 (Chaperonin containing TCP1 subunit 3) | DRSC16602 | 66365 | 3289 |
| Sod1 (Superoxide dismutase 1) | DRSC11286 | 98565 | 5956 |
| ens (ensconsin) | DRSC08454 | 70526 | 3105 |
| CG6005 | DRSC15945 | 78584 | 3359 |
| rump (rumpelstiltskin) | DRSC16480 | 61959 | 4029 |
| CG31689 | DRSC00734 | 1.65e5 | 6492 |
| lwr (lesswright) | DRSC00828 | 99135 | 3818 |
| Tep3 (Thioester-containing protein 3) | DRSC03452 | 1.42e5 | 4820 |
| CG6912 | DRSC16132 | 1.09e5 | 6148 |
| Npc2a (Niemann-Pick type C-2a) | DRSC00698 | 1.74e5 | 5685 |
| CG14043 | DRSC02368 | 1.23e5 | 4564 |
| cu (curled) | DRSC15643 | 1.52e5 | 7045 |
| cu (curled) | DRSC15648 | 1.41e5 | 6213 |
| alpha-PheRS (Phenylalanyl-tRNA synthetase, alpha-subunit) | DRSC18224 | 7744 | 704 |
| mRpL51 (mitochondrial ribosomal protein L51) | DRSC02200 | 85031 | 3558 |
| mab-21 | DRSC18791 | 1.22e5 | 6266 |
| Targ1 (Terminal ADP-ribose protein glycohydrolase 1) | DRSC11616 | 1.37e5 | 6981 |
| Hyccin | DRSC06983 | 70469 | 3862 |
| CG42521 | DRSC10154 | 1.13e5 | 5423 |
| CG8187 | DRSC07099 | 71432 | 3471 |
| Pfdn2 (Prefoldin 2) | DRSC10618 | 85322 | 4802 |
| CG2972 | DRSC18250 | 6478 | 688 |
| E(spl)m8-HLH (Enhancer of split m8, helix-loop-helix) | DRSC16654 | 1.20e5 | 6699 |
| CG5854 | DRSC15894 | 59800 | 4156 |
| CG4610 | DRSC04477 | 1.05e5 | 3812 |
| Srp14 (Signal recognition particle 14) | DRSC15797 | 1.41e5 | 6897 |
| ZnT33D (Zinc transporter 33D) | DRSC02591 | 96927 | 4030 |
| GC (gamma-glutamyl carboxylase) | DRSC08396 | 98189 | 4155 |
| jv (javelin) | DRSC08831 | 1.16e5 | 5622 |
| jv (javelin) | DRSC08832 | 1.35e5 | 4545 |
| egr (eiger) | DRSC06233 | 1.41e5 | 4820 |
| Rtel1 (Regulator of telomere elongation helicase 1) | DRSC18343 | 56007 | 3857 |
| Gr59e (Gustatory receptor 59e) | DRSC04276 | 1.04e5 | 4596 |
| CG6567 | DRSC16066 | 1.31e5 | 6772 |
| CG15483 | DRSC02493 | 95969 | 3934 |
| CG3777 | DRSC18489 | 59608 | 3155 |
| CG13217 | DRSC06339 | 86518 | 4174 |
| CG1092 | DRSC12151 | 69997 | 3668 |
| ko (knockout) | DRSC11893 | 1.31e5 | 6841 |
| Wdfy2 (WD repeat and FYVE domain containing 2) | DRSC02822 | 83369 | 3658 |
| SAK (Sak kinase) | DRSC11879 | 1.44e5 | 6705 |
| CG7333 | DRSC16229 | 1.14e5 | 7026 |
| hpRNA:CR18854 + IP3K1 | DRSC02218 | 82095 | 3153 |
| CRIF (CR6-interacting factor) | DRSC11811 | 1.33e5 | 7508 |
| CG18304 | DRSC02664 | 1.52e5 | 5704 |
| mRpL55 (mitochondrial ribosomal protein L55) | DRSC14764 | 1.35e5 | 7130 |
| Cyp303a1 (Cytochrome P450 303a1) | DRSC03300 | 1.11e5 | 4673 |
| Pp1alpha-96A (Protein phosphatase 1alpha at 96A) | DRSC16795 | 1.13e5 | 5712 |
| Chmp1 (Charged multivesicular body protein 1) | DRSC10401 | 87998 | 4165 |
| Cyp6a15Psi (pseudo) | DRSC07377 | 1.43e5 | 5099 |
| CG14273 | DRSC02377 | 1.34e5 | 4897 |
| CG17192 | DRSC15186 | 1.05e5 | 5333 |
| CG3955 | DRSC06859 | 108 | 32 |
| tow (target of wingless) | DRSC10192 | 72602 | 3716 |
| CG14322 | DRSC14801 | 1.24e5 | 7909 |
| DIP1 (DISCO Interacting Protein 1) | DRSC20818 | 1.30e5 | 6507 |
| YME1L (YME1 like ATPase) | DRSC04378 | 78115 | 3956 |
| Mondo | DRSC02667 | 76827 | 3350 |
| Mondo | DRSC02668 | 95535 | 3724 |
| Cerk (Ceramide kinase) | DRSC12285 | 69787 | 3474 |
| Su(Tpl) (Suppressor of Triplolethal) | DRSC10954 | 60994 | 3718 |
| CG16922 (retired record) | DRSC19758 | 1.03e5 | 5378 |
| obst-E (obstructor-E) | DRSC02128 | 94353 | 4256 |
| CG15431 | DRSC00446 | 1.42e5 | 5447 |
| CG31550 | DRSC12197 | 1.48e5 | 6673 |
| CG31550 | DRSC12198 | 86894 | 4111 |
| CG9444 | DRSC16493 | 1.34e5 | 6046 |
| borr (borealin-related) | DRSC02749 | 63787 | 3892 |
| PIP4K (Phosphatidylinositol 5-phosphate 4-kinase) | DRSC17213 | 62388 | 4958 |
| CG12880 | DRSC14568 | 1734 | 840 |
| Dbct (Dihydrolipoamide branched chain transacylase E2) | DRSC19951 | 7790 | 768 |
| SIFaR (SIFamide receptor) | DRSC13467 | 84923 | 2371 |
| SIFaR (SIFamide receptor) | DRSC14266 | 1.50e5 | 8137 |
| CG4880 | DRSC19923 | 1.48e5 | 5494 |
| Sec10 (Secretory 10) | DRSC17053 | 68177 | 3073 |
| CG31125 | DRSC13684 | 81891 | 2707 |
| tra2 (transformer 2) | DRSC07708 | 2718 | 222 |
| CG17028 | DRSC10239 | 1.54e5 | 7230 |
| betaNACtes2 (Nascent-associated complex beta-subunit-like, testis 2) | DRSC19792 | 2.41e5 | 7762 |
| Sfp93F (Seminal fluid protein 93F) | DRSC13505 | 48924 | 3299 |
| eRF1 (eukaryotic translation release factor 1) | DRSC11779 | 74436 | 4283 |
| Ube4B (Ubiquitination factor E4B) | DRSC03277 | 70252 | 3814 |
| CG16976 (retired record) | DRSC08262 | 77669 | 3188 |
| CG16976 (retired record) | DRSC08499 | 96268 | 4207 |
| CG17959 | DRSC18142 | 1.12e5 | 6304 |
| Atf3 (Activating transcription factor 3) | DRSC17225 | 85029 | 4612 |
| CG13658 | DRSC14659 | 1.13e5 | 6144 |
| CG5039 | DRSC15703 | 1.14e5 | 5583 |
| Pdcd4 (Programmed cell death 4) | DRSC19360 | 1.90e5 | 9426 |
| polyph (polyphemus) | DRSC06254 | 1.44e5 | 4445 |
| CG6978 | DRSC18409 | 91332 | 4018 |
| Nubp1 (NUBP iron-sulfur cluster assembly factor 1) | DRSC02639 | 80937 | 194 |
| Ubr1 (Ubr1 ubiquitin ligase) | DRSC20148 | 1.58e5 | 6002 |
| att-ORFB + DPCoAC | DRSC15556 | 1.37e5 | 7745 |
| Ca-alpha1T (Ca[2+]-channel protein alpha[[1]] subunit T) | DRSC17842 | 92023 | 5645 |
| Ca-alpha1T (Ca[2+]-channel protein alpha[[1]] subunit T) | DRSC18103 | 1.01e5 | 4988 |
| Ca-alpha1T (Ca[2+]-channel protein alpha[[1]] subunit T) | DRSC18356 | 1.11e5 | 5601 |
| Ca-alpha1T (Ca[2+]-channel protein alpha[[1]] subunit T) | DRSC18357 | 1.05e5 | 5299 |

17 neighbouring records from above, quoted:
| Gene | DRSC id | E2F firefly, rep 1 | Renilla normaliser, rep 1 |
| --- | --- | --- | --- |
| CG6567 | DRSC16066 | 1.31e5 | 6772 |
| CG15483 | DRSC02493 | 95969 | 3934 |
| CG3777 | DRSC18489 | 59608 | 3155 |
| CG13217 | DRSC06339 | 86518 | 4174 |
| CG1092 | DRSC12151 | 69997 | 3668 |
| ko (knockout) | DRSC11893 | 1.31e5 | 6841 |
| Wdfy2 (WD repeat and FYVE domain containing 2) | DRSC02822 | 83369 | 3658 |
| SAK (Sak kinase) | DRSC11879 | 1.44e5 | 6705 |
| CG7333 | DRSC16229 | 1.14e5 | 7026 |
| hpRNA:CR18854 + IP3K1 | DRSC02218 | 82095 | 3153 |
| CRIF (CR6-interacting factor) | DRSC11811 | 1.33e5 | 7508 |
| CG18304 | DRSC02664 | 1.52e5 | 5704 |
| mRpL55 (mitochondrial ribosomal protein L55) | DRSC14764 | 1.35e5 | 7130 |
| Cyp303a1 (Cytochrome P450 303a1) | DRSC03300 | 1.11e5 | 4673 |
| Pp1alpha-96A (Protein phosphatase 1alpha at 96A) | DRSC16795 | 1.13e5 | 5712 |
| Chmp1 (Charged multivesicular body protein 1) | DRSC10401 | 87998 | 4165 |
| Cyp6a15Psi (pseudo) | DRSC07377 | 1.43e5 | 5099 |
